# Source: the supplement of paper PMC3334620
# The full ranking holds about 33,000 sequences; the median of “E-score (-0.5 to 0.5)” is about -0.0059, and the highest 2% start at about 0.26. The list shows a part of the results.
# Target: T1, Cin5 (UniProt P40917)
# T1 sequence: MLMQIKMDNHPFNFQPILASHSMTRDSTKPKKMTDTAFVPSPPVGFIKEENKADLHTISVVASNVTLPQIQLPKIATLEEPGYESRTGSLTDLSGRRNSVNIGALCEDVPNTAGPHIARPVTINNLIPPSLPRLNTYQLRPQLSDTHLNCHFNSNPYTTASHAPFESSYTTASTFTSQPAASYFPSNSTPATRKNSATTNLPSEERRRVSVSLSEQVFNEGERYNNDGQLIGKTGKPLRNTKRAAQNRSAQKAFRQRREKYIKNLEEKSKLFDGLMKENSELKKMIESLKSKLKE
# Assay: PBM E-score (8-mer binding enrichment) (E-score (-0.5 to 0.5)); higher = stronger / more preferred TF binding
# Conditions: protein concentration: 100 nM; construct: GST-full length
# How it was run: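 GST-tagged yeast TFs (full-length or DNA-binding domain) were made by PURExpress in vitro transcription/translation and applied at about 100-200 nM to universal all-10-mer Agilent arrays. The arrays were made double-stranded by primer extension, on fresh or once-stripped slides. Bound protein was detected with fluorescent anti-GST, and scans were normalised with masliner. Each ungapped eight-base word, pooled with its reverse complement, received an E-score (modified Wilcoxon-Mann-Whitney statistic) from the Universal PBM Analysis Suite.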
row,Sequence,PBM E-score
1,ACTATACG,-0.00616
2,AGTTAGCA,0.161
3,AGCCCGAT,-0.00819
4,TGTCCCAA,-0.102
5,ATCGTGGG,0.0716
6,CGTATCTC,-0.0672
7,ATAGTCTG,0.0407
8,GACTCCTC,-0.066
9,AGAGGCCA,-0.196
10,AGTGCGAG,-0.072
11,CCGGGATC,0.119
12,TCGTCTAA,-0.103
13,GACTGGGA,0.139
14,GACAGGGC,-0.233
15,ATAGCGAG,-0.116
16,CTCCCAAC,-0.219
17,CTCGTCGC,-0.011
18,AGGTCAAA,-0.191
19,ACTCAGCA,0.161
20,TCTCCAGA,-0.229
21,AAGAGTGA,0.0194
22,AGAACACT,0.0637
23,GCGTCATA,0.112
24,CTACCAAA,-0.0011
25,GGTTGCTA,-0.0578

row,Sequence,PBM E-score
1,ACCTGTGC,-0.042
2,GTCTTCGA,-0.105
3,CGAGTGAG,0.0323
4,GAGTCGAC,0.063
5,AGAAAGTC,0.0218
6,ATAAATCG,0.159
7,ACATAGTC,0.124
8,AGGCTTGG,-0.0873
9,AACCCGCA,0.0428
10,GGTCAGAA,-0.0712
11,CCGGAAAC,0.0344
12,GGAATTAA,0.145
13,CATACAAG,-0.0434
14,CTCCGAAC,-0.108
15,ATGTGTTG,0.24
16,CCATGAGC,-0.119
17,ACTCTCAG,-0.124
18,ACCCTGCT,-0.201
19,CGTCGACA,-0.0223
20,GACAAGCC,0.00939
21,CCTTTTAA,-0.0794
22,CTGCGATA,-0.03
23,AAGAGCCA,0.0467
24,GACACATC,0.0514
25,GACACTCC,0.0166

row,Sequence,PBM E-score
1,CCAGGAGC,-0.258
2,GGGATGTA,0.0944
3,AAGAGACC,0.0456
4,ATCCAATG,-0.00595
5,CTCATGGA,-0.0437
6,ACGACCGA,-0.0622
7,GTATTGAC,0.0334
8,GGGGAAAC,-0.0321
9,GTTTCTCA,0.0125
10,TAGAGGCA,-0.158
11,AAGCTGGA,-0.0206
12,CACCATCA,0.0581
13,AACTGGTG,-0.0874
14,CAAGCCCA,-0.212
15,CAATCGAA,0.0731
16,GATATAGC,0.109
17,AGATACGG,0.0474
18,TAAAGGGA,-0.115
19,AAGTCCGA,-0.146
20,GTCTAGGA,-0.178
21,ACCTGTGA,0.0529
22,AGGTGTGG,-0.156
23,GTATTTTA,0.0961
24,AGATGGCG,0.0661
25,CACCATAA,0.104

# Some values from the list:
# Value of AACTGGTG under PBM E-score: -0.0874
# Value of AGATGGCG under PBM E-score: 0.0661
# Value of CACCATCA under PBM E-score: 0.0581
# Value of CAAGCCCA under PBM E-score: -0.212
# Value of TAAAGGGA under PBM E-score: -0.115
# Value of CACCATAA under PBM E-score: 0.104

# Further records:

row,Sequence,PBM E-score
1,ATCATTCG,0.256
2,TACCAGCA,0.117
3,GGGAGCAC,-0.337
4,AGTAGCAG,0.0739
5,ATCGCGAG,0.197
6,CCAATACA,0.171
7,GATTGTAC,-0.0353
8,GAAGTTAC,0.196
9,ACTTATAA,0.172
10,TCTGAGAA,0.0605
11,ATAAGTCA,0.229
12,CAAGCCCG,-0.206
13,GACGGCCA,0.0076
14,AAACGTGT,-0.0863
15,ATAAAGAG,0.0111
16,CACTGATG,-0.0558
17,GCGCCGTA,-0.0196
18,TCATGAGA,0.023
19,CATGACGA,0.103
20,CAAAGGAG,0.0549
21,ACGGTACA,0.0466
22,AATGGTCG,-0.0729
23,AAGGGGGT,-0.486
24,CAGTCCTC,-0.211
25,ATCCCGTC,0.0343

row,Sequence,PBM E-score
1,ATTGCATG,0.166
2,GCTTTGTA,0.174
3,CCCTGCCC,-0.219
4,CAAGCCGC,-0.189
5,AACGATCC,-0.0525
6,AGTAAATG,0.168
7,ACTTTGAG,-0.126
8,GCAGACTA,-0.196
9,CATGTTCG,-0.0998
10,TAACGTGA,-0.0816
11,CCGAAAGC,-0.328
12,GGGATGGA,-0.0407
13,CCGTTTCC,0.0386
14,CGTCCCTC,-0.187
15,AAGTGGCT,0.0123
16,CAAGGCCG,-0.123
17,AAGTAGTC,0.0452
18,TCAGAGGA,-0.154
19,CGCTGCAG,-0.109
20,AGCCACTC,-0.0694
21,GGCATAGA,0.0143
22,GATGTTAC,0.0289
23,CGAAAAAA,0.159
24,ATCCCAGC,-0.131
25,CTTACCTC,-0.0461

row,Sequence,PBM E-score
1,ACGCTGCG,-0.164
2,AAGGTGAA,-0.0511
3,AGTCAAGA,0.0158
4,AACCGTAG,-0.244
5,ATTTGCTA,0.166
6,AAAATTTT,0.0314
7,GTAGAAAC,0.0147
8,GGACTTAA,-0.15
9,CGAACCAA,0.0772
10,AAAGTTCG,0.141
11,AAAATCAC,0.194
12,CCCGCGAG,0.0785
13,CACACTGC,-0.0218
14,CAGTTCCA,0.119
15,AGTCCTAT,0.00257
16,CCTCAACA,0.0578
17,TCCCAACA,-0.0407
18,CGCTCAAG,-0.124
19,CGAAGCAA,-0.0443
20,ACCCAGTC,0.00535
21,CTTAAAGC,-0.108
22,CCACTGGA,-0.116
23,ATCCTGAG,-0.0584
24,ATGTGCCA,-0.102
25,CCTATCCC,0.133

row,Sequence,PBM E-score
1,AATTACAG,0.107
2,AGACGCCC,0.00127
3,AAATTTTA,-0.0545
4,GCGCCACA,0.0939
5,CCAAAATC,0.11
6,AACGTGAT,-0.0506
7,CCGATTGA,0.0661
8,CCATGGCG,4e-05
9,AAAATGCA,-0.0683
10,AACTCAGA,0.0722
11,CCTTTCCG,-0.127
12,CTTCACGC,0.0975
13,CACAGTGC,-0.0827
14,ATCCACTA,0.134
15,CTCCCGAA,-0.143
16,GGGGAGAC,-0.187
17,AACGTATT,0.103
18,AGCAGTAT,0.145
19,CAACATGA,0.232
20,CAGCTAAA,-0.0291
21,GCCTTTCC,-0.202
22,GCATATCA,0.234
